# Measured values from the supplement of paper PMC11732987, “Enantioselective OTUD7B fragment discovery through chemoproteomics screening and high-throughput optimisation” (Communications Chemistry, 2025).
# Protein sequences, listed by entry. Tags and fused reporters are not part of them. Lines headed by an entry give the natural chain unless they say otherwise; changes in a name come on top. Residues count along the entry.
# UniProt P50548, 459-481: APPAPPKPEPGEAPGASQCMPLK
# UniProt O00471: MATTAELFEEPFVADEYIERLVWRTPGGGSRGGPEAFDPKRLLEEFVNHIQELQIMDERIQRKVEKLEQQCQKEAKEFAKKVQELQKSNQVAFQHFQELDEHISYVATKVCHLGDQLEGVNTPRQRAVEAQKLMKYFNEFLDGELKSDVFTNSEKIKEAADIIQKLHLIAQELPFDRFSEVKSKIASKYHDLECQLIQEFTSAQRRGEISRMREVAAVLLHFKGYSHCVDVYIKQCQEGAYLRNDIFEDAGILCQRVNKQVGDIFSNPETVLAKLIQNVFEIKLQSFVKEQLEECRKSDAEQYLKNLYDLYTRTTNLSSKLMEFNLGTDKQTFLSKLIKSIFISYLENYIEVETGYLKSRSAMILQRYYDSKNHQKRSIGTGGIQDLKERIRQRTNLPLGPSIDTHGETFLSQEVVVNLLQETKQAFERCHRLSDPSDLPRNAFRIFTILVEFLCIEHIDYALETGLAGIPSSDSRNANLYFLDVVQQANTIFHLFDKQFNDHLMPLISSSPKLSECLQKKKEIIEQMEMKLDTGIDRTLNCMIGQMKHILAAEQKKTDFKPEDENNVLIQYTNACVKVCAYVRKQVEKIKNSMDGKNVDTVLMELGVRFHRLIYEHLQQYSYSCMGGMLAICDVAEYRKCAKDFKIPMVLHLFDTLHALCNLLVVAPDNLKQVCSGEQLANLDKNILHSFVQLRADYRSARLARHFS
# UniProt O43402: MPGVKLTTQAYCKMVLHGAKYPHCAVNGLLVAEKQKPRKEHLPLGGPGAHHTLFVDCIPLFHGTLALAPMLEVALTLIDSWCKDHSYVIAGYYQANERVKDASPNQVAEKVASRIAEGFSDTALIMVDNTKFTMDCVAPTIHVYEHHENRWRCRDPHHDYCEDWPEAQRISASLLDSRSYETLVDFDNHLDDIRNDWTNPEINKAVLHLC
# UniProt Q14674: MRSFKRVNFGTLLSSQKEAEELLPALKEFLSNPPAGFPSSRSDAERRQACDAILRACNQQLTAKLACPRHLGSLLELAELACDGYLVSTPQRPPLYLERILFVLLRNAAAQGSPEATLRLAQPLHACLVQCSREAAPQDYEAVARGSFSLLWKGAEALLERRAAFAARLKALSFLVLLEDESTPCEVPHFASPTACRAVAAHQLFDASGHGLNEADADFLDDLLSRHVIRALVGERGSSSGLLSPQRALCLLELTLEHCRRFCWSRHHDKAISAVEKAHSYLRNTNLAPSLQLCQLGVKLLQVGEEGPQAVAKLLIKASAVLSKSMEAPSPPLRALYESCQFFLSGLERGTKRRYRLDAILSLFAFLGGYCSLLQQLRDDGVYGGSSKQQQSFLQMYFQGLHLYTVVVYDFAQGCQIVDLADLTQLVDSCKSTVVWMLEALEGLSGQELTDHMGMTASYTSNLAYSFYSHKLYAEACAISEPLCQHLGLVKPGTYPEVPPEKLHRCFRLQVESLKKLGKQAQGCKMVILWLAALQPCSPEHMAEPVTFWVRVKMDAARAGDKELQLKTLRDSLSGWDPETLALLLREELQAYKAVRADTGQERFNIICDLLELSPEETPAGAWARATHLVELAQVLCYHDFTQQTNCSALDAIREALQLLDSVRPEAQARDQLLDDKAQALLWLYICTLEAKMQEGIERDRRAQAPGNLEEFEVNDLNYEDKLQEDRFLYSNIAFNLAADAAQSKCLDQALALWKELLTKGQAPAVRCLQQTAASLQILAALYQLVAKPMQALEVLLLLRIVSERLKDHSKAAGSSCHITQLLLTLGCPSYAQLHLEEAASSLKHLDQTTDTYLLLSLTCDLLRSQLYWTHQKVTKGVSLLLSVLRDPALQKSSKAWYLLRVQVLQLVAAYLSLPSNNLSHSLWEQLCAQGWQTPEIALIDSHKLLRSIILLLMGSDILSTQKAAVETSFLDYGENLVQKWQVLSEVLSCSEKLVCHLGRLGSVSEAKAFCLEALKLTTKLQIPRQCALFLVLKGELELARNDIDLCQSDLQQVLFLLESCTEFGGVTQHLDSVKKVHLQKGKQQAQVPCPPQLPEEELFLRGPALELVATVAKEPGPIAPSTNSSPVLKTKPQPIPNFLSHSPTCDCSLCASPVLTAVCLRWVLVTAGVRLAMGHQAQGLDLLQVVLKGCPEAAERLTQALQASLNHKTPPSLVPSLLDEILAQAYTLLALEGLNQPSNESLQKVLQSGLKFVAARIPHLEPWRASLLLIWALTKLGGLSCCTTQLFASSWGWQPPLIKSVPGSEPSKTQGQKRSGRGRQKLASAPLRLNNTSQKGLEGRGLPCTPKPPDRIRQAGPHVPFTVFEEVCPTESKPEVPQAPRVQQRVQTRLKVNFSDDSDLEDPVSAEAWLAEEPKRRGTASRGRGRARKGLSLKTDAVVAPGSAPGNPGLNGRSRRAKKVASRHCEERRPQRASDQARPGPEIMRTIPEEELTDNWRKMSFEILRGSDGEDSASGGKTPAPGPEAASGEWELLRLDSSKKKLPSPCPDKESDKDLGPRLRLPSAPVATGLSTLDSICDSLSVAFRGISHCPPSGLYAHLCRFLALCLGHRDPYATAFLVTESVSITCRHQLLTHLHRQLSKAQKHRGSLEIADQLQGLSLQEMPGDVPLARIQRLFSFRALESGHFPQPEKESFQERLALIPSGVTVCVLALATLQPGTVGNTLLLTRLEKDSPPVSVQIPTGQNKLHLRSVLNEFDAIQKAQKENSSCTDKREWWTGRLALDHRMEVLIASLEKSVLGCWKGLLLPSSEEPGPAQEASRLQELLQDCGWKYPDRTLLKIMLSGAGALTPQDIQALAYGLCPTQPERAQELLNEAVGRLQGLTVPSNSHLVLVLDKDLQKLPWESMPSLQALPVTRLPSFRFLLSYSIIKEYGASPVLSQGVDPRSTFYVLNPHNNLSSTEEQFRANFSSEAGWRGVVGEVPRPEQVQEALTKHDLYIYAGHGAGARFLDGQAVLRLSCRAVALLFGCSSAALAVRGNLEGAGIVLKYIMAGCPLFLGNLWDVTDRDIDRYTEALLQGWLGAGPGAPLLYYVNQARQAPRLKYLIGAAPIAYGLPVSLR
# UniProt Q9BXW9: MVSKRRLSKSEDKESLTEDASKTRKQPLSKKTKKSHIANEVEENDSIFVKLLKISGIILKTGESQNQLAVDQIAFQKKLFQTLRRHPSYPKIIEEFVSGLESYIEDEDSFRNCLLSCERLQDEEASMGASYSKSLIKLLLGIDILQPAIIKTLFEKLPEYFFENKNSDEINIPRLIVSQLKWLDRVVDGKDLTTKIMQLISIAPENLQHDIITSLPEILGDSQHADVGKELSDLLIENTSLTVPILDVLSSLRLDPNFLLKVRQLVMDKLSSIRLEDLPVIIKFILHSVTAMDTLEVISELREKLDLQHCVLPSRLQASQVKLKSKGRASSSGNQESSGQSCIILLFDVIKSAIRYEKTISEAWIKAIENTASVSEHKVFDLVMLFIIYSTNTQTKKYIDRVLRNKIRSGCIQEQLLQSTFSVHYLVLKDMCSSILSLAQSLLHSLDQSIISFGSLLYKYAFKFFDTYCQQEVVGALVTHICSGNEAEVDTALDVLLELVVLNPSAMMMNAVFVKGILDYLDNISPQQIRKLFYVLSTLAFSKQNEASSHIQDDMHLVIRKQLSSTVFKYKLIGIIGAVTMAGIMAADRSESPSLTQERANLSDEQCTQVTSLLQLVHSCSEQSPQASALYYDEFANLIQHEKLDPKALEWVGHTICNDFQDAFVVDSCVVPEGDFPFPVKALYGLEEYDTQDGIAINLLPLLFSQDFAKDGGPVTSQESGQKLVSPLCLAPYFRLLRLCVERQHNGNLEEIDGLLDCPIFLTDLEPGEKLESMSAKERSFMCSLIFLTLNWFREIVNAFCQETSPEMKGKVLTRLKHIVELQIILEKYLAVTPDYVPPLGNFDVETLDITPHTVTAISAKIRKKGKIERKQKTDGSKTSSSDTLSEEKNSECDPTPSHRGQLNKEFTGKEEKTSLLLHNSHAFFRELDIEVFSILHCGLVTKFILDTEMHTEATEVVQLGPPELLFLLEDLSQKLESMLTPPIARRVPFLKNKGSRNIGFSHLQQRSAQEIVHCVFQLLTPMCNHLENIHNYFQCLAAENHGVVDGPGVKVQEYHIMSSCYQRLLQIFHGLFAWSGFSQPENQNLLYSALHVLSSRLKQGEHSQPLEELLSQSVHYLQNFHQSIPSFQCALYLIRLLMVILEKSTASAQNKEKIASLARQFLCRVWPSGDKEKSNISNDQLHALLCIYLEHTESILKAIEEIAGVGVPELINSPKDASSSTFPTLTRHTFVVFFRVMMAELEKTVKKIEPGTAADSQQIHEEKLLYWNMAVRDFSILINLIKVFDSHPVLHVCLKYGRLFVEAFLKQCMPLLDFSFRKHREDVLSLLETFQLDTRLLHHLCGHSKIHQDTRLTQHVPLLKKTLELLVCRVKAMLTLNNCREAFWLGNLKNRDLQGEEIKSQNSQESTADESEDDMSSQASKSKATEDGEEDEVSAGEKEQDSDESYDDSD
# UniProt Q6ZRV2: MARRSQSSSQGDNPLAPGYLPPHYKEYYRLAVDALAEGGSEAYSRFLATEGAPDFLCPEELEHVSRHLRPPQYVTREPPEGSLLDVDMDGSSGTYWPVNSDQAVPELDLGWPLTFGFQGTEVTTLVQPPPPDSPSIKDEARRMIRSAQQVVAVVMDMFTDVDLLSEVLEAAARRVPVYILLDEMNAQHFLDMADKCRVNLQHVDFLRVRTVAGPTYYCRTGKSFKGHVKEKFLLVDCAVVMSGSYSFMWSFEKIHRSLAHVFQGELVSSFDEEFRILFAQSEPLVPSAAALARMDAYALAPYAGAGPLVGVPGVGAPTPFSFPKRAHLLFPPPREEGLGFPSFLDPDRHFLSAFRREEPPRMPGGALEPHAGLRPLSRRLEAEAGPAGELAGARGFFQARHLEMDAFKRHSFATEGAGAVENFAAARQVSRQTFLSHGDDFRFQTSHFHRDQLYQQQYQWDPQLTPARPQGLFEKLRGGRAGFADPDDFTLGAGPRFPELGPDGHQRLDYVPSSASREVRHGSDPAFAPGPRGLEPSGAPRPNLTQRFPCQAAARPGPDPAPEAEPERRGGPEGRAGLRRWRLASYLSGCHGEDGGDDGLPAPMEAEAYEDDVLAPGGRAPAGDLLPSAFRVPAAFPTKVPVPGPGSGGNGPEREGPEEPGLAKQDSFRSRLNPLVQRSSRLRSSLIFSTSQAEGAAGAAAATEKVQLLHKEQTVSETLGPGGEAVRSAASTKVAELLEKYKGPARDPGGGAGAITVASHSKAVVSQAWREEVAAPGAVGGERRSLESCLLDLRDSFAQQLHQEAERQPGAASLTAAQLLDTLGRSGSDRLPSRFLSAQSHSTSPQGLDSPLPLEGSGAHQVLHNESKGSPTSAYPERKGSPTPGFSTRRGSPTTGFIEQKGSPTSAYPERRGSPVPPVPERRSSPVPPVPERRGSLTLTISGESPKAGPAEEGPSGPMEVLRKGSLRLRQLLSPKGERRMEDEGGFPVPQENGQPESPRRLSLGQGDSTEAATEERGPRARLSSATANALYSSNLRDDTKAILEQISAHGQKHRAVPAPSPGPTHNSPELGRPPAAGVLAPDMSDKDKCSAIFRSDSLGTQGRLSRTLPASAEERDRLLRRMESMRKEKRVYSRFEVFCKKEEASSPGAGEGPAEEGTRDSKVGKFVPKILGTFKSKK
# Some of the results follow. The data scatter; read single values as rough.
# Key:
# [1] = compound: ClCC(=O)N[C@@H]1CCCc2ccccc12; experiment: log2 mean competition ratio of IA-DTB cysteine labelling (DMSO/compound) (log2 ratio); higher = stronger cysteine engagement by compound; conditions: treatment time: 4 h, cell line lysate: HEK293T
# Protocol: (§1)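 IA-DTB competitive cysteine chemoproteomics in HEK293T RIPA lysate. Lysates were treated with compound 29 or 30 at 50 or 200 µM for 4 h, then IA-DTB (500 µM, 1 h), trypsin-digested, NeutrAvidin-enriched and analysed by diaPASEF. Competition ratio = intensity DMSO / intensity compound (n=4 treated, n=64 DMSO); binding: mean log2 CR ≥ 1 and p ≤ 0.05 plus QC filters. Target is the cysteine site.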
# [2] = compound: ClCC(=O)N[C@H]1CCCc2ccccc12; experiment: as above; conditions: treatment time: 4 h, cell line lysate: HEK293T
# Protocol: as §1
target,measurement,setting,value
ERF C477 (UniProt P50548),log2 mean competition ratio,[1]; 50 µM,-0.0823
same,log2 mean competition ratio,[1]; 200 µM,-0.0107
same,log2 mean competition ratio,[2]; 50 µM,-0.149
same,log2 mean competition ratio,[2]; 200 µM,0.026
ESCO1 C450,log2 mean competition ratio,[1]; 50 µM,-0.102
same,log2 mean competition ratio,[1]; 200 µM,-0.0568
same,log2 mean competition ratio,[2]; 50 µM,-0.0798
same,log2 mean competition ratio,[2]; 200 µM,0.0171
EYA2 C522,log2 mean competition ratio,[1]; 50 µM,0.00562
same,log2 mean competition ratio,[1]; 200 µM,0.23
same,log2 mean competition ratio,[2]; 50 µM,-0.347
same,log2 mean competition ratio,[2]; 200 µM,-0.403
EPRS1 C697,log2 mean competition ratio,[1]; 50 µM,-0.317
same,log2 mean competition ratio,[1]; 200 µM,-0.00578
same,log2 mean competition ratio,[2]; 50 µM,-0.154
same,log2 mean competition ratio,[2]; 200 µM,0.104
EXOC5 C542 (UniProt O00471),log2 mean competition ratio,[1]; 50 µM,0.0194
same,log2 mean competition ratio,[1]; 200 µM,0.122
same,log2 mean competition ratio,[2]; 50 µM,-0.233
same,log2 mean competition ratio,[2]; 200 µM,0.0261
EMC8 C12 (UniProt O43402),log2 mean competition ratio,[1]; 50 µM,0.113
same,log2 mean competition ratio,[1]; 200 µM,-0.0909
same,log2 mean competition ratio,[2]; 50 µM,-0.0205
same,log2 mean competition ratio,[2]; 200 µM,-0.0907
ESPL1 C1829 (UniProt Q14674),log2 mean competition ratio,[1]; 50 µM,-0.0278
same,log2 mean competition ratio,[1]; 200 µM,-0.106
same,log2 mean competition ratio,[2]; 50 µM,-0.212
same,log2 mean competition ratio,[2]; 200 µM,-0.261
FANCD2 C310 (UniProt Q9BXW9),log2 mean competition ratio,[1]; 50 µM,-0.232
same,log2 mean competition ratio,[1]; 200 µM,0.053
same,log2 mean competition ratio,[2]; 50 µM,-0.237
same,log2 mean competition ratio,[2]; 200 µM,-0.191
FAM83H C789 (UniProt Q6ZRV2),log2 mean competition ratio,[1]; 50 µM,0.102
same,log2 mean competition ratio,[1]; 200 µM,-0.163
same,log2 mean competition ratio,[2]; 50 µM,-0.35
same,log2 mean competition ratio,[2]; 200 µM,0.145

# No new results follow: an excerpt of the list.
target,measurement,setting,value
EMC8 C12 (UniProt O43402),log2 mean competition ratio,[2]; 200 µM,-0.0907
ESPL1 C1829 (UniProt Q14674),log2 mean competition ratio,[1]; 50 µM,-0.0278
same,log2 mean competition ratio,[1]; 200 µM,-0.106
same,log2 mean competition ratio,[2]; 50 µM,-0.212
same,log2 mean competition ratio,[2]; 200 µM,-0.261
FANCD2 C310 (UniProt Q9BXW9),log2 mean competition ratio,[1]; 50 µM,-0.232
same,log2 mean competition ratio,[1]; 200 µM,0.053
